The test system of data set [1] is rat model of trauma-hemorrhage and resuscitation. The data set is described as follows: trauma/hemorrhage mimicking the field, Example 2 (glucosamine only during resuscitation). As to conditions: G-T-H (n = 8), 2 h after T-H, mean ± SEM. Format: in vivo. The method, then: The following experiments were conducted using a model of soft tissue trauma-hemorrhage (T-H) as described in Ba, et al., Crit. Care Med (2000) 28(8):2837-2842; Chaudry, et al., Can J Physiol Pharmacol (1975) 53(5):859-865; Ma, et al., Am J Physiol Gastrointest Liver Physiol (2003) 284(1):G107-G115; and Harkema and Chaudry, Crit. Care Med (1992) 20(2):263-275. Male rats were fasted for 16 h and divided into three groups: (1) sham (trauma only); (2) T-H (trauma with subsequent hemorrhage and resuscitation); and (3) G-T-H (trauma with subsequent hemorrhage and resuscitation in the presence of glucosamine). All groups underwent a 5 cm ventral midline laparotomy to induce soft-tissue trauma and were cannulated in both femoral arteries and the right femoral vein. The T-H and G-T-H groups received an infusion of 3 mls over 30 minutes of Ringer's lactate (RL) containing, in the G-T-H group only, 10 mM glucosamine. These two groups were then bled to a mean arterial pressure of 40 mm Hg within 10 minutes and maintained at that pressure for 80 minutes. The T-H group was then infused with 1 ml RL over 10 minutes, while in the G-T-H group the infusate contained an iso-osmotic solution of 75 mM glucosamine (pH 7.4) in 50% RL. […] Organ blood flows were determined using radioactive microspheres. Cardiac function and blood parameters were also assessed. […]

Data set [2] has the same test system. The data set is described as follows: soft tissue trauma-hemorrhage (T-H) and resuscitation, Example 1 (glucosamine before hemorrhage and during resuscitation). As to conditions: G-T-H (n = 3), mean ± SEM. Format: in vivo. The method, then:
The following experiments were conducted using a model of soft tissue trauma-hemorrhage (T-H) as described in Ba, et al., Crit. Care Med (2000) 28(8):2837-2842; Chaudry, et al., Can J Physiol Pharmacol (1975) 53(5):859-865; Ma, et al., Am J Physiol Gastrointest Liver Physiol (2003) 284(1):G107-G115; and Harkema and Chaudry, Crit. Care Med (1992) 20(2):263-275. Male rats were fasted for 16 h and divided into three groups: (1) sham (trauma only); (2) T-H (trauma with subsequent hemorrhage and resuscitation); and (3) G-T-H (trauma with subsequent hemorrhage and resuscitation in the presence of glucosamine). All groups underwent a 5 cm ventral midline laparotomy to induce soft-tissue trauma and were cannulated in both femoral arteries and the right femoral vein. The T-H and G-T-H groups received an infusion of 3 mls over 30 minutes of Ringer's lactate (RL) containing, in the G-T-H group only, 10 mM glucosamine. These two groups were then bled to a mean arterial pressure of 40 mm Hg within 10 minutes and maintained at that pressure for 80 minutes. The T-H group was then infused with 1 ml RL over 10 minutes, while in the G-T-H group the infusate contained an iso-osmotic solution of 75 mM glucosamine (pH 7.4) in 50% RL. The two groups were then resuscitated with four times the maximum hemorrhage volume over a period of 60 minutes with RL (T-H) or RL containing 10 mM glucosamine (G-T-H). Sham-operated animals underwent the same surgical procedure but were neither bled nor resuscitated. Two hours post-resuscitation, a catheter was inserted into the left ventricle via the right carotid artery. Organ blood flows were determined using radioactive microspheres. Cardiac function and blood parameters were also assessed. The data for these experiments are shown in Tables 1 and 2 (values are mean ±standard error of the mean).

[3] abbreviates: 2 h after T-H, glucosamine before hemorrhage and in resuscitation.

This note sets out measurements from patent publication US20080166323A1, “Activators of Hexosamine Biosynthesis as Inhibitors of Injury Induced by Ischemia or Hermorrhagic Shock” (UAB RESEARCH FOUNDATION, priority 2004, published 2008).

In data set [1], `N[C@H]1C(O)O[C@H](CO)[C@@H](O)[C@@H]1O` (some centres unmarked) [glucosamine] came in with a Hematocrit of 16.74 ± 0.76% and a Hemoglobin of 5.31 ± 0.26 g. In data set [2] (setting [3]), this compound displayed a Hematocrit of 17.6 ± 0.2% and a Hemoglobin of 5.6 ± 0.1 g. Besides, the “Maximum Hemorrhage Volume” value in data set [2] (glucosamine infused before hemorrhage) is recorded as 12.2 ± 0.7 mls.
